Assay results published in patent publication US20200299373A1.
Results are given in words; binding and its absence hold for the method and conditions named. Some binding calls cover weakened binding; strength is not graded here.

Target: T1, F2-11-BSA (human)
T1 sequence (peptide, conjugated to BSA): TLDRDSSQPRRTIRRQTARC
Assay: ELISA on coated BSA-conjugated mutant F2 peptide (FIG. 3C)

binding: binds
B1: anti-FAM19A5 antibody 1-28 (antibody, V domains shown)
VH: AVTLDESGGGLQTPGGALSLVCKASGFDFSDYGMGWVRQAPGKGLEWVAAIRSDGSNPSYGSAVKGRATISKDNGRSTVRLQLNNLRAEDTATYYCAKDGNGYCALDAYRSGGYSCGVYPGSIDAWGHGTEVIVSS
VL: ALTQPSSVSANLEGTVEITCSGSGYGYGWYQQKSPGSAPVTVIYQNDKRPSDIPSRFSGSKSGSTGTLTITGVQVEDEAVYYCGSEDSSTLAGIFGAGTTLTVL
